Measured values: patent US20200397913A1 (GENMAB A/S, priority 2015, published 2020)

System: human-mouse AXL chimeras (hsAXL, hsAXL-mmECD, -mmIg1, -mmIg2, -mmFN1, -mmFN2)
Assay type: binding
Conditions: 1 μg/mL antibody

Molecule | AXL domain specificity
IgG1-AXL-183: human IgG1,κ anti-AXL antibody, VH SEQ ID NO:16, VL SEQ ID NO:18; FN1 domain binding (antibody, V domains shown, homo sapiens) VH: QVQLQQWGAGLLKPSETLSLTCAVYGGSFSGYYWSWIRQPPGKGLEWIGEINQSGSTNYNPSLKSRVTISVDTSKNQFSLKLSSVTAADTSVYYCASGNWDHFFDYWGQGTLVTVSS VL: DIQMTQSPSSVSASVGDRVTITCRASQGISSWLAWYQHKPGKAPKLLIYATSSLQSGVTSRFSGSGSGTDFTLTISSLQPEDFATYYCQQAKSFPWTFGQGTKVEIK | Fn1
IgG1-AXL-726: human IgG1,κ anti-AXL antibody, VH SEQ ID NO:31, VL SEQ ID NO:33; FN2 domain binding (antibody, V domains shown, homo sapiens) VH: QVQLQQWGAGLLKPSETLSLTCAIDGGSFSGYYWSWIRQPPGKGLEWIGEISHSGRTNYNPSLKSRVTISIDTSKNQFSLKLSSVAAADTAVYYCARFITMIRGAIITHFDYWGQGALVTVSS VL: DIQMTQSPSSLSASVGDRVTITCRASQGISSWLAWYQQKPEKAPKSLIYAASSLQSGVPSRFSGSGSGTDFTLTISSLQPEDFATYYCQQYHSYPYTFGQGTKLEIK | Fn2
IgG1-AXL-733: human IgG1,κ anti-AXL antibody, VH SEQ ID NO:34, VL SEQ ID NO:35; FN1 domain binding (antibody, V domains shown, homo sapiens) VH: QVQLVESGGGVVQPGRSLRLSCAASGFSFSTYAMHWVRQAPGKGLEWVAVISYDGDNKYSADSVKGRFTISRDNSKNTLYLQMNSLRAEDTAVYYCARGRKLGIDAFDIWGQGTMVTVSS VL: AIQLTQSPSSLSASVGDRVTITCRASQGISSALAWYQQKPGKAPKLLIYDASSLESGVPSRFSGSGSGTDFTLTISGLQPEDFATYYCQQFNSYPFTFGPGTKVDIK | Fn1
IgG1-AXL-148: human IgG1,κ anti-AXL antibody, VH SEQ ID NO:5, VL SEQ ID NO:6; Ig2 domain binding (antibody, V domains shown, homo sapiens) VH: EVQLLESGGGLVQPGGSLRLSCAASGFTFSSYAMTWVRQAPGKGLEWVSAISISGGSTFYADSVKGRFTISRDNSKNTLYLQMNSLRAEDTAVYYCRGYSGYVYDAFDFWGQGTMVTVSS VL: DIQMTQSPSSLSASVGDRVTITCRASQGISNWLAWYQQKPEKAPKSLIYAASSLQSGVPSRFSGSGSGTDFTLTISSLQPEDFATYYCQQYNSYPLTFGGGTKVEIK | Ig2
